Results taken from publication PMC10243088.
Results are given in words; binding and its absence hold for the method and conditions named. In cells and extracts the contact can be indirect. Some entries that bind do so weakly or less than the wild type.

Biological target: T1, hephaestin (human (endogenous in iPSC-derived ECs and HEK 293)) (UniProt Q9BQS7)
T1 sequence: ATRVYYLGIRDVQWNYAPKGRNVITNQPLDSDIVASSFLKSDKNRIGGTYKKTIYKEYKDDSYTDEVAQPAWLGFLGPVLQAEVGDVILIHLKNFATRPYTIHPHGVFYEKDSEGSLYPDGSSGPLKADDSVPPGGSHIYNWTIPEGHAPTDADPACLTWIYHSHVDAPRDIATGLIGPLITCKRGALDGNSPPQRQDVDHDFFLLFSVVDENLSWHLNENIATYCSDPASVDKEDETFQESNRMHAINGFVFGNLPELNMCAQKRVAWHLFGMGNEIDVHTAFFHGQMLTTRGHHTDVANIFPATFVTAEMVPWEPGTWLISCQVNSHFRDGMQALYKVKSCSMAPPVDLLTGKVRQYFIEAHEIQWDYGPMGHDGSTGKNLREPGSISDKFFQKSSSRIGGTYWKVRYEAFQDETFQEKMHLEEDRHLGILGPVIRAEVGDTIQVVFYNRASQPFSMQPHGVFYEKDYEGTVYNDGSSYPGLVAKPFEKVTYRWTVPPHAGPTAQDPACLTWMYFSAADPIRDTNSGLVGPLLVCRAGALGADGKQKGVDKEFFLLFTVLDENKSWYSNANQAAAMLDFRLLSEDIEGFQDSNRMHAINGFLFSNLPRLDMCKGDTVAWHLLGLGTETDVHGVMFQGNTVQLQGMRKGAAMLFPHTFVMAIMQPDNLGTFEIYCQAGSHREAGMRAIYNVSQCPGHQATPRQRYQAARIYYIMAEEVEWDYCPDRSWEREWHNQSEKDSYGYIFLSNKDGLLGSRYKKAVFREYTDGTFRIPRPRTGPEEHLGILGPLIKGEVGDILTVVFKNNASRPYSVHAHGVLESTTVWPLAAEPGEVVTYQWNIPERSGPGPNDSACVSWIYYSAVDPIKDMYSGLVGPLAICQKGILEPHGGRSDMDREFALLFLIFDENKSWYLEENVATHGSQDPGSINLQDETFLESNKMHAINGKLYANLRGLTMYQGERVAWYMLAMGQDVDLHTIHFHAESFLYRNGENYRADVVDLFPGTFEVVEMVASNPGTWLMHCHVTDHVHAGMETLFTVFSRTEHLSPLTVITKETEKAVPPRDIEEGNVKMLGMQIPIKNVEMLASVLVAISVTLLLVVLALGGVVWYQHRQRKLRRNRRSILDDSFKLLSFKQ
Test: co-IP; iPSC-derived ECs lysate, Protein G magnetic beads with anti-Heph antibody; endogenous Fpn and Heph

binding: binds
B1: ferroportin (protein, UniProt Q9NP59 1-571)
chain: MTRAGDHNRQRGCCGSLADYLTSAKFLLYLGHSLSTWGDRMWHFAVSVFLVELYGNSLLLTAVYGLVVAGSVLVLGAIIGDWVDKNARLKVAQTSLVVQNVSVILCGIILMMVFLHKHELLTMYHGWVLTSCYILIITIANIANLASTATAITIQRDWIVVVAGEDRSKLANMNATIRRIDQLTNILAPMAVGQIMTFGSPVIGCGFISGWNLVSMCVEYVLLWKVYQKTPALAVKAGLKEEETELKQLNLHKDTEPKPLEGTHLMGVKDSNIHELEHEQEPTCASQMAEPFRTFRDGWVSYYNQPVFLAGMGLAFLYMTVLGFDCITTGYAYTQGLSGSILSILMGASAITGIMGTVAFTWLRRKCGLVRTGLISGLAQLSCLILCVISVFMPGSPLDLSVSPFEDIRSRFIQGESITPTKIPEITTEIYMSNGSNSANIVPETSPESVPIISVSLLFAGVIAARIGLWSFDLTVTQLLQENVIESERGIINGVQNSMNYLLDLLHFIMVILAPNPEAFGLLVLISVSFVAMGHIMYFRFAQNTLGNKLFACGPDAKEVRKENQANTSVV
